In the supplement of paper PMC6078165:
The reference is the same well before dosing, and untreated signal decays as well.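 Fibroblast labels name human fibroblasts: mostly primary ones from tissues such as uterus (C12385, HUF), lung (H6013), bone (Hs27A), adrenal (HADF) and skin (WS1), plus mammary HMF and breast cancer-associated Hs343T. The cancer cells are basal-like or mesenchymal-like triple-negative breast cancer lines. The paper calls a changed response a hit when it shifts by more than 3x the replicate standard deviation. The tissue of the other fibroblasts is not given here.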

Tested on: MDAMB436
Experiment: relative JC-1 red fluorescence (viability) vs pre-drug, coculture with fibroblast (fraction); higher = more viable cancer cells
Protocol: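 JC-1 labelled TNBC cells cocultured 1:1 (1,500 cells each) with CellTrace Violet stained primary or stromal fibroblasts in 384-well plates in FluoroBrite medium, treated with one of 42 anticancer drugs at 0.1, 1, 10 or 100 uM. JC-1 red fluorescence (mitochondrial integrity in cancer cells only) was read by plate reader every 8 h for 72 h. Values are normalised to each well's pre-drug value. The stock of one drug was tenfold lower, so its dose labels may be too high.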

O=C(CCCCCCC(=O)Nc1ccccc1)NO [Vorinostat]
relative JC-1 red fluorescence
Settings | 8 h | 16 h | 24 h | 32 h | 40 h | 48 h | 56 h | 64 h | 72 h
0.1 µM, coculture fibroblast: C12385 | 0.7867 | 0.672 | 0.625 | 0.537 | 0.489 | 0.453 | 0.438 | 0.422 | 0.424
0.1 µM, coculture fibroblast: H6013 | 0.7515 | 0.7171 | 0.7041 | 0.6915 | 0.6766 | 0.7037 | 0.6733 | 0.6604 | 0.6213
0.1 µM, coculture fibroblast: H6019 | 0.687 | 0.628 | 0.579 | 0.488 | 0.443 | 0.419 | 0.39 | 0.365 | 0.34
0.1 µM, coculture fibroblast: H6076 | 0.694 | 0.621 | 0.6049 | 0.576 | 0.5705 | 0.55 | 0.567 | 0.556 | 0.554
0.1 µM, coculture fibroblast: H6231 | 0.726 | 0.636 | 0.6419 | 0.5548 | 0.542 | 0.511 | 0.493 | 0.476 | 0.456
0.1 µM, coculture fibroblast: HADF | 0.777 | 0.685 | 0.638 | 0.602 | 0.571 | 0.575 | 0.519 | 0.502 | 0.4721
0.1 µM, coculture fibroblast: HCFa | 0.739 | 0.718 | 0.689 | 0.659 | 0.629 | 0.646 | 0.588 | 0.569 | 0.512
0.1 µM, coculture fibroblast: HCPF | 0.753 | 0.6995 | 0.697 | 0.64 | 0.637 | 0.606 | 0.599 | 0.576 | 0.569
0.1 µM, coculture fibroblast: HHSteC | 0.779 | 0.775 | 0.761 | 0.735 | 0.73 | 0.743 | 0.682 | 0.655 | 0.599
0.1 µM, coculture fibroblast: HMF | 0.706 | 0.649 | 0.603 | 0.558 | 0.543 | 0.505 | 0.507 | 0.482 | 0.474
0.1 µM, coculture fibroblast: HPFa | 0.873 | 0.79 | 0.754 | 0.715 | 0.708 | 0.713 | 0.631 | 0.595 | 0.516
0.1 µM, coculture fibroblast: HUF | 0.823 | 0.707 | 0.671 | 0.598 | 0.535 | 0.504 | 0.482 | 0.46 | 0.453
0.1 µM, coculture fibroblast: Hs5 | 0.7558 | 0.691 | 0.665 | 0.601 | 0.581 | 0.551 | 0.564 | 0.541 | 0.537
0.1 µM, coculture fibroblast: Hs27A | 0.8318 | 0.76 | 0.75923 | 0.746 | 0.716 | 0.7726 | 0.6744 | 0.6624 | 0.58589
0.1 µM, coculture fibroblast: Hs343T | 0.746 | 0.67 | 0.629 | 0.571 | 0.543 | 0.505 | 0.483 | 0.462 | 0.453
0.1 µM, coculture fibroblast: WS1 | 0.74 | 0.651 | 0.599 | 0.51 | 0.466 | 0.43 | 0.401 | 0.377 | 0.365
1 µM, coculture fibroblast: C12385 | 0.8076 | 0.722 | – | 0.547 | 0.495 | 0.473 | 0.451 | 0.437 | 0.432
1 µM, coculture fibroblast: H6013 | 0.7997 | 0.7122 | 0.6722 | 0.6578 | 0.639 | 0.655 | 0.635 | 0.627 | 0.599
1 µM, coculture fibroblast: H6019 | 0.746 | 0.647 | 0.605 | 0.535 | 0.494 | 0.479 | 0.45 | 0.427 | 0.408
1 µM, coculture fibroblast: H6076 | 0.792 | 0.672 | 0.646 | 0.623 | 0.611 | 0.602 | 0.616 | 0.62 | 0.615
1 µM, coculture fibroblast: H6231 | 0.822 | 0.734 | 0.666 | 0.615 | 0.574 | 0.5468 | 0.536 | 0.513 | 0.489
1 µM, coculture fibroblast: HADF | 0.822 | 0.741 | 0.69 | 0.674 | 0.639 | 0.643 | 0.598 | 0.588 | 0.553
1 µM, coculture fibroblast: HCFa | 0.809 | 0.76 | 0.703 | 0.697 | 0.669 | 0.671 | 0.616 | 0.602 | 0.55
1 µM, coculture fibroblast: HCPF | 0.793 | 0.706 | 0.668 | 0.623 | 0.598 | 0.568 | 0.542 | 0.524 | 0.501
1 µM, coculture fibroblast: HHSteC | 0.872 | 0.847 | 0.77 | 0.739 | 0.718 | 0.723 | 0.663 | 0.645 | 0.597
1 µM, coculture fibroblast: HMF | 0.802 | 0.695 | 0.614 | 0.569 | 0.541 | 0.511 | 0.498 | 0.482 | 0.469
1 µM, coculture fibroblast: HPFa | 0.83 | 0.756 | 0.707 | 0.676 | 0.661 | 0.674 | 0.61 | 0.596 | 0.544
1 µM, coculture fibroblast: HUF | 0.8448 | 0.734 | 0.679 | 0.607 | 0.549 | 0.519 | 0.488 | 0.472 | 0.464
1 µM, coculture fibroblast: Hs5 | 0.864 | 0.778 | 0.7088 | 0.6518 | 0.62 | 0.5756 | 0.574 | 0.54 | 0.531
1 µM, coculture fibroblast: Hs27A | 0.789 | 0.711 | 0.677 | 0.677 | 0.6555 | 0.693 | 0.633 | 0.62 | 0.562
1 µM, coculture fibroblast: Hs343T | 0.785 | 0.66 | 0.5719 | 0.5278 | 0.5025 | 0.475 | 0.4575 | 0.4448 | 0.43752
1 µM, coculture fibroblast: WS1 | 0.8014 | 0.7016 | 0.64 | 0.554 | 0.511 | 0.493 | 0.473 | 0.452 | 0.449
10 µM, coculture fibroblast: C12385 | 0.814 | 0.676 | 0.647 | 0.5435 | 0.4942 | 0.4632 | 0.4444 | 0.421 | 0.416
10 µM, coculture fibroblast: H6013 | 0.8207 | 0.737 | 0.726 | 0.721 | 0.713 | 0.745 | 0.734 | 0.741 | 0.723
10 µM, coculture fibroblast: H6019 | 0.7092 | 0.648 | 0.626 | 0.564 | 0.553 | 0.57 | 0.579 | 0.597 | 0.608
10 µM, coculture fibroblast: H6076 | 0.663 | 0.556 | 0.536 | 0.498 | 0.494 | 0.491 | 0.517 | 0.526 | 0.534
10 µM, coculture fibroblast: H6231 | 0.772 | 0.68 | 0.581 | 0.52 | 0.494 | 0.459 | 0.441 | 0.428 | 0.409
10 µM, coculture fibroblast: HADF | 0.822 | 0.717 | 0.703 | 0.675 | 0.672 | 0.693 | 0.636 | 0.637 | 0.593
10 µM, coculture fibroblast: HCFa | 0.788 | 0.763 | 0.741 | 0.699 | 0.691 | 0.7147 | 0.679 | 0.689 | 0.656
10 µM, coculture fibroblast: HCPF | 0.789 | 0.635 | 0.634 | 0.575 | 0.547 | 0.516 | 0.495 | 0.475 | 0.469
10 µM, coculture fibroblast: HHSteC | 0.807 | 0.739 | 0.716 | 0.687 | 0.679 | 0.704 | 0.652 | 0.645 | 0.614
10 µM, coculture fibroblast: HMF | 0.7177 | 0.5933 | 0.571 | 0.525 | 0.524 | 0.49 | 0.512 | 0.495 | 0.513
10 µM, coculture fibroblast: HPFa | 0.927 | 0.847 | 0.816 | 0.7822 | 0.7706 | 0.7961 | 0.749 | – | 0.72
10 µM, coculture fibroblast: HUF | 0.844 | 0.715 | 0.685 | 0.614 | 0.575 | 0.56 | 0.546 | 0.547 | 0.549
10 µM, coculture fibroblast: Hs5 | 0.77 | 0.633 | 0.629 | 0.578 | 0.568 | 0.537 | 0.558 | 0.536 | 0.541
10 µM, coculture fibroblast: Hs27A | 0.799 | 0.7292 | 0.6872 | 0.6761 | 0.6563 | 0.724 | 0.6793 | 0.6913 | 0.642
10 µM, coculture fibroblast: Hs343T | 0.677 | 0.575 | 0.5382 | 0.4905 | 0.469 | 0.438 | 0.439 | 0.4371 | 0.449
10 µM, coculture fibroblast: WS1 | 0.7914 | 0.669 | 0.6354 | 0.535 | 0.485 | 0.459 | 0.441 | 0.419 | 0.414
100 µM, coculture fibroblast: C12385 | 0.822 | 0.7092 | 0.708 | 0.612 | 0.563 | 0.536 | 0.514 | 0.498 | 0.497
100 µM, coculture fibroblast: H6013 | 0.8462 | 0.717 | 0.688 | 0.672 | 0.643 | 0.672 | 0.654 | 0.656 | 0.634
100 µM, coculture fibroblast: H6019 | 0.768 | 0.667 | 0.677 | 0.638 | 0.636 | 0.653 | 0.666 | 0.691 | 0.696
100 µM, coculture fibroblast: H6076 | 0.77599 | 0.639 | 0.5774 | 0.527 | 0.501 | 0.493 | 0.514 | 0.514 | 0.529
100 µM, coculture fibroblast: H6231 | 0.748 | 0.662 | 0.6127 | 0.5702 | 0.53 | 0.508 | 0.496 | 0.494 | 0.489
100 µM, coculture fibroblast: HADF | 0.829 | 0.756 | 0.712 | 0.685 | 0.669 | 0.693 | 0.653 | 0.647 | 0.606
100 µM, coculture fibroblast: HCFa | 0.801 | 0.7 | 0.663 | 0.623 | 0.607 | 0.631 | 0.603 | 0.626 | 0.5925
100 µM, coculture fibroblast: HCPF | 0.758 | 0.66 | 0.555 | 0.5259 | 0.476 | 0.445 | 0.421 | 0.408 | 0.396
100 µM, coculture fibroblast: HHSteC | 0.831 | 0.753 | 0.73 | 0.697 | 0.681 | 0.702 | 0.647 | 0.641 | 0.611
100 µM, coculture fibroblast: HMF | 0.761 | 0.651 | 0.565 | 0.537 | 0.521 | 0.492 | 0.497 | 0.499 | 0.513
100 µM, coculture fibroblast: HPFa | 0.885 | 0.823 | 0.78 | 0.74 | 0.73 | 0.742 | 0.692 | 0.694 | 0.653
100 µM, coculture fibroblast: HUF | 0.857 | 0.736 | 0.701 | 0.622 | 0.578 | 0.564 | 0.552 | 0.547 | 0.551
100 µM, coculture fibroblast: Hs5 | 0.81 | 0.701 | 0.641 | 0.568 | 0.5328 | 0.485 | 0.487 | 0.467 | 0.456
100 µM, coculture fibroblast: Hs27A | 0.908 | 0.848 | 0.774 | 0.73 | 0.68 | 0.693 | 0.643 | 0.629 | 0.573
100 µM, coculture fibroblast: Hs343T | 0.81 | 0.699 | 0.592 | 0.545 | 0.502 | 0.466 | 0.447 | 0.433 | 0.44
100 µM, coculture fibroblast: WS1 | 0.82 | 0.696 | 0.6633 | 0.58024 | 0.539 | 0.516 | 0.5 | 0.474 | 0.469
